Data published in patent US20260008852A1.
These are yes or no findings as the source states them, for the method shown. Some binding calls cover weakened binding; strength is not graded here.

Amino acid sequences for entries named in this document (tags omitted). Residues count along the entry.
UniProt Q5ZPR3, residues 29-534: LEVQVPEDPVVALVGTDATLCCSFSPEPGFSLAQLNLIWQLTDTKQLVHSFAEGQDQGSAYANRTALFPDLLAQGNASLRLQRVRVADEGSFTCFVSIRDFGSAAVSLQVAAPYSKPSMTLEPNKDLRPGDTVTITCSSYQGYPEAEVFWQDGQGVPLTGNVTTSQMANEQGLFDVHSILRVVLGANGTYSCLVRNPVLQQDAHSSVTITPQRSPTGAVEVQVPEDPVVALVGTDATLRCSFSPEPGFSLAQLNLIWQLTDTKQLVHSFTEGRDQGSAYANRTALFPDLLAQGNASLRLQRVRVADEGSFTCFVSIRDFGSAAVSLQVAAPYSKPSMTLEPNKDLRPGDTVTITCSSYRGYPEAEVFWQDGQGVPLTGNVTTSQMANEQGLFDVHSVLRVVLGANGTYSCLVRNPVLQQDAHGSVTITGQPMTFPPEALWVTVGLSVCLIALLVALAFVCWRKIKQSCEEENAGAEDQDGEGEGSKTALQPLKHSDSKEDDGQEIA
UniProt Q8VE98, residues 29-244: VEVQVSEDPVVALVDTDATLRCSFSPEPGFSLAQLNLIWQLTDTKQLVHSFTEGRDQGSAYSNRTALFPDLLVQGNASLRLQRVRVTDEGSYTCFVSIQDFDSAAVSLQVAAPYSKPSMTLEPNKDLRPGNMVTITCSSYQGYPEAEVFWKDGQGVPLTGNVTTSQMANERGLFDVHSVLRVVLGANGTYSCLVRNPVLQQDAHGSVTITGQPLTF

How the values were obtained:
[1] = target: B7-H3 on B7-H3-expressing CHO cells (Genescript) (UniProt Q5ZPR3); test: flow cytometry, B7-H3-expressing CHO cells, 10 ug/ml
[2] = target: His-tagged mouse B7-H3 (mouse) (UniProt Q8VE98); test: ELISA, coated His-tagged antigen

Binder	binding [1]	binding [2]
40633p1.1.A11 (scFv, V domains shown) VH: EVQLLESGGDLVQPGGSLRLSCAASGFTFNTYWMNWVRQAPGKGLEWVAGINSKGGVTYYADSVKGRFTISRDNSKNTLYLQMNSLRAEDTAVYYCADWNDYDIMDVWGQGTTVTVSS VL: QSVLTQPPSASGTPGQTITISCSGSSSNVGRRTVNWYQQLPGTAPKLLIYTNAQRPSGVPDRFSGSKSGTSASLAISGLQSEDEADYYCATWDDSLNAWVFGGGTKLTVL	binds	binds
40633p1.1.A6 (scFv, V domains shown) VH: EVQLLESGGGLVQPGGSLRLSCAASGFSFSNYDMSWVRQAPGKGLEWVAGIRSGSRTYYADSVKGRFTISRDNSKNTLYLQMNSLRAEDTATYYCGRYFNMDVWGQGTTVTVSS VL: QSVLTQPPSASGTPGQRVTISCSGSTFNIGTNLVHWYQQLPGTAPKLLIYLTDRRPSGVPDRFSGSKSGTSASLAISGLQSEDEANYYCATWDDSLNSFLFGGGTKLTVL	binds	binds
40633p1.1.A7 (scFv, V domains shown) VH: EVQLLESGGGLVQPGGSLRLSCAASGFTVSYYGMSWVRQAPGKGLEWVSAIKQDGSEKYYADSVKGRFTISRDNSKNTLYLQMNSLRAEDTAVYYCARHWNDYSNAMNVWGQGTTVTVSS VL: QSVLTQPPSASGTPGQRVTISCSGSTSNIGRESVYWYQQLPGTAPKLLIYTIDQRPSGVPDRFSGSKSGTSASLAISGLQSEDEAVYYCASWDASLNGWVFGGGTKLTVL	binds	binds
40633p1.1.B12 (scFv, V domains shown) VH: EVQLLESGGGLLQPGGSLRLSCAASGFSFSSYGMHWVRQAPGKGLEWVAAINSDGSRIYYADSVKGRFTISRDNSKNTLYLQMNSLRAEDTAVYYCTKYYYHYAMDVWGQGTTVTVSS VL: QSVLTQPPSASGTPGQRVTISCSGSRSDIGATTVNWYQQLPGTAPKLLTYQSHLRPSGVPDRFSGSKSGTSASLAISGLQSEDEADYYCASWDASLNTWVFGGGTKLTVL	binds	binds
40633p1.1.B3 (scFv, V domains shown) VH: EVQLLESGGGLVQPGGSLRLSCAASGFTVSYYGMSWVRQAPGKGLEWVSAIKQDGSEKYYADSVKGRFTISRDNSKNTLYLQMNSLRAEDTAVYYCARHWNDYSNAMNVWGQGTTVTVSS VL: QSVLTQPPSASGTPGQRVTISCSGSTSNIGRESVYWYQQLPGTAPKLLIYTIDQRPSGVPDRFSGSKSGTSASLAISGLQSEDEADYYCGTWDDSLNAWVFGGGTKLTVL	binds	binds
40633p1.1.D11 (scFv, V domains shown) VH: EVQLLESGGGLVQPGGSLRLSCAASGFTFRSYAMSWVRQAPGKGLEWVAYIGSSGGTTYYADSVKGRFTISRDNSKNTLYLQMNSLRAEDTAVYYCVKESYYYMDVWGQGTTVTVSS VL: QSVLTQPPSASGTPGQRVTISCSATISNIDINRVSWYQQLPGTAPKLLIFNSQRPSGVPDRFSGSKSGTSASLAISGLQSEDEADYYCATWDDSLNSWVFGGGTKLTVL	binds	binds
40633p1.1.F2 (scFv, V domains shown) VH: EVQLLESGGGLVQPGGSLRLSCVASGLTFNGFAMTWVRQAPGKGLEWVSGISWNSGSIYYADSVKGRFTISRDNSKNTVYLQMSSLRAEDTAIYYCAKNWNDYYNSMDVWGQGTTVTVSS VL: QSVLTQPPSASGTPGQRVTISCSGSRSNIGTKYVYWYQQFPGTAPKLLIYTTDRRPSGVPDRFSGSKSGTSASLAISGLQSEDEADYYCSAWDDRLNAWVFGGGTKLTVL	binds	binds
40633p1.1.G10 (scFv, V domains shown) VH: EVQLLESGGGLVEPGGSLRLSCAASGFSFSSYGMHWVRQAPGKGLDWVAVINGEGSGTYYADSVKGRFTISRDNSKSTLYLQMNSLRAEDTAVYYCTKYYYNYAMDVWGQGTTVTVSS VL: QSVLTQPPSASGTPGQRVTISCSGSRTDIGTTSVNWYQQLPGTAPKLLIYQSHQRPSGVPDRFSGSKSGTSASLAISGLQSEDEADYYCASWDASQNTWVFGGGTKLTVL	binds	binds
40633p1.1.G11 (scFv, V domains shown) VH: EVQLLESGGGLVQPGGSLRLSCAASGFTVSYYGMSWVRQAPGKGLEWVSVIKQDGSEEYYADSVKGRFTISRDNSKNTLYLQMNSPRAEDTAVYYCARHWNDYSNGMNVWGQGTTVTVSS VL: QSVLTQPPSASGTPGQRVTISCSGSTSNVGDRYVYWYQQLPGTAPKLLIYLDDQRPSGVPDRFSGSKSGTSASLAISGLQSEDEADYYCASWDASLNGWVFGGGTKLTVL	binds	binds
40633p1.1.G5 (scFv, V domains shown) VH: EVQLLESGGGLVQPGGSLRLSCAASGFIVNYYGMSWVRQPPGKGLEWVSAIKQDGSEKYYADSVKGRFTISRDNSKTTLYLQMNSLRAEDTAVYYCARHWNDYSNGMNVWGQGTTVTVSS VL: QSVLTQPPSASGTPGQRVTISCSGSWSNIGSYNSHWYQKLPGTAPKLLIYTTDRRPSGVPDRFSGSKSGTSASLAISGLQSEDEADYYCGTWDDSLNVWVFGGGTKLTVL	binds	binds
40633p1.1.G7 (scFv, V domains shown) VH: EVQLLESGGGLVQPGGSLRLSCAASGFTFSGSAMNWVRQAPGKGLEWVSAINSGGTTIYYADSVKGRFTVSRDNSKNTLYLQMNSLRAEDTAVYYCVKLDFYYGMDVWGEGTTVTVSS VL: QSVVTQPPSASGTPGQRVTVSCSGSSSNVGSKYVQWYQQLPGTAPKLLIYATDRRPSGVPDRFSGSKSGTSASLAISGLQSEDEADYYCASWDDSLNAWVFGGGTKLTVL	binds	binds
40633p1.1.H11 (scFv, V domains shown) VH: EVQLLESGGGLVQPGGSLRLSCAASGFTFSSYPMTWVRQAPGKGLEWVADINSGGGTTLYADAVKGRFTISRDNSKNIVYLQMNSLRGEDTAVYYCAKHLDYYSYGMDVWGQGTTVTVSS VL: QSVLTQPPSASGTPGQRVTISCSGVTSKIGSKYVHWYQQLPGTAPKLLIYRNFERPSGVPDRFSGSTSGTSASLAISGLQSEDEADYYCATWEGALNGWVFGGGTKLTVL	binds	binds
40633p1.2.A10 (scFv, V domains shown) VH: EVQLLESGGGLVQPGGSLRLSCAASGFTVSYYGMSWVRQAPGKGLEWVSVIKQDGSEEYYADSVKGRFTISRDNSKNTLYLQMNSLRAEDTAVYYCARHWNDYSNGMNVWGQGTTVTVSS VL: QSVLTQPPSASGTPGQRVTISCSGSTSNVGDRYVYWYQQLPGTAPKLLIYLDDQRPSGVPDRFSGSKSGTSASLAISGLQSEDEADYYCASWDASLNGWVFGGGTKLTVL	binds	binds
40633p1.2.A8 (scFv, V domains shown) VH: EVQLLESGGGLLQPGGSLRLSCAASGFSFSSYGMHWVRQAPGKGLEWVAAINSDGSRIYYADSVKGRFTISRDNSKNTLYLQMNSLRAEDTAVYYCTKYYYHYAMDVWGQGTTVTVSS VL: QSVLTQPPSASGTPGQRVTISCSGSRSDIGATTVNWYQQLPGTAPKLLIYQSHLRPSGVPDRFSGSKSGTSASLAISGLQSEDEADYYCASWDASLNTWVFGGGTKLTVL	binds	binds
40633p1.2.C3 (scFv, V domains shown) VH: EVQLLESGGGLVQPGGSLRLSCAASGFTVSYYGMSWVRQAPGKGLEWVSAIKQDGSEKYYADSVKGRFTISRDNSKNTLYLQMNSLRAEDTAVYYCARHWNDYSNAMNVWEQGTTVTVSS VL: QSVLTQPPSASGTPGQRVTISCSGSNSNVGGNYVSWYQQLPGTAPKLLIYRNSQRPSGVPDRFSGSKSGTSASLAISGLQSEDEAVYYCASWDASLNGWVFGGGTKLTVL	binds	binds
40633p1.2.D1 (scFv, V domains shown) VH: EVQLLESGGGLVQPGGSLRLSCAASGFTFDVYGMSWVRQAPGKGLEWVSAINWNGGSTYYADSVKGRFTISRDNSENTLYLQMNSLRAEDTAVYYCAKEKWKHFIYYGMDVWGQGTTVTVSS VL: QSVLTQPASASGTPGQTVSISCSGSSSNIDSNTANWYQQLPGTAPKLLIYSNNQRPSGVPDRFSGSKSDTSASLAISGLQSEDEGDYYCSAWDDNLNGWLFGGGTKLTVL	binds	binds
40633p1.2.D11 (scFv, V domains shown) VH: EVQLESGGGLVQPGGSLRLSCAASGFTVSYYGMSWVRQAPGKGLEWVSAIKQDGSEKYYADSVKGRFTISRDNSKNTLYLQMNSLRAEDTAVYYCARHWNDYSNAMNVWGQGTTVTVSS VL: QSVLTQPPSASGTPGQRVTISCSGSTSNIAIDFVNWYQQLPGTAPKLLIYTIDQRPSGVPDRFSGSKSGTSASLAISGLQSEDEAVYYCASWDASLNGWVFGRGTKLTVL	binds	binds
40633p1.2.E1 (scFv, V domains shown) VH: EVQLLESGRGLVQPGGSLRLSCAASGFTVSYYGMSWVRQAPGKGLEWVSVIKQDGSEEYYADSVKGRFTISRDNSKNTLYLQMNSLRAEDTAVYYCARHWNDYSNGMNVWGQGTTVTVSS VL: QSVLTQPPSASGTPGQRVTISCSGSTSNVGDRYVYWYQQLPGTAPKLLIYLDDQRPSGVPDRFSGSKSGTSASLAISGLQSEDEADYYCASWDASLNGWVFGGGTKLTVL	binds	binds
40633p1.2.E11 (scFv, V domains shown) VH: EVQLLESGGGLVQPGGSLRLSCAASGFSFSNYDMSWVRQAPGKGLEWVAGIRSGSRTYYADSVKGRFTISRDNSKNTLYLQMNSLRAEDTATYYCGRYFNMDVWGQGTTVTVSS VL: QSVLTQPPSASGTPGQRVTISCSGSTFNIGTNLVHWYQQLPGTAPKLLIYLTDRRPPGVPDRFSGSKSGTSASLAISGLQSEDEANYYCATWDDSLNSFLFGGGTKLTVL	binds	binds
40633p1.2.G9 (scFv, V domains shown) VH: EVQLLESGGGLLQPGGSLRLSCAASGFSFSSYGMHWVRQAPGKGLEWVAAINSDGSRIYYADSVEGRFTISRDNSKNTLYLQMNSLRAEDTAVYYCTKYYYHYAMDVWGQGTTVTVSS VL: QSVLTQPPSASGTPGQRVTISCSGSRSDIGATTVNWYQQLPGTAPKLLIYQSHLRPSGVPDRFSGSKSGTSASLAISGLQSEDEADYYCASWDASLNTWVFGGGTKLTVL	binds	binds
